These are yes or no findings as the source states them, for the method shown. Binding seen in cells or lysates may run through a third protein. These calls come from enrichment with a bait or labelling near it, and not all partners need be listed. Where a sequence is shown, tags or fusion partners need not be part of it. Blank lines part the entries; values can stand above or below the molecule they belong to.
Target: T1, HHLA2-HA (UniProt Q9UM44)
T1 sequence (chain, extensively glycosylated (smeared band on western blots); sites not stated): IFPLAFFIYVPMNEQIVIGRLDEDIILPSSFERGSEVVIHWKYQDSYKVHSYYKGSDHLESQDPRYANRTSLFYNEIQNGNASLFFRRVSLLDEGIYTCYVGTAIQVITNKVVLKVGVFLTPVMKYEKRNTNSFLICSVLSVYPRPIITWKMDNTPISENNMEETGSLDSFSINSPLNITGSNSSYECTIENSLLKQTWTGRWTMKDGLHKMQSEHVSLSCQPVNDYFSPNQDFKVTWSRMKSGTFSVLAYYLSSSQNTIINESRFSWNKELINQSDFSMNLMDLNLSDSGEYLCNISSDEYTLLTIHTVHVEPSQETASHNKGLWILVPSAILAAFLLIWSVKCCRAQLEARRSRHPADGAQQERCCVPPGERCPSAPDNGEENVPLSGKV
Test: affinity purification with mass spectrometry

binding: binds
Molecule: c-Met (from UniProt P08581 25-1390) (receptor)

binding: binds
B1: STT3A (enzyme, UniProt P46977 1-705)
chain: MTKFGFLRLSYEKQDTLLKLLILSMAAVLSFSTRLFAVLRFESVIHEFDPYFNYRTTRFLAEEGFYKFHNWFDDRAWYPLGRIIGGTIYPGLMITSAAIYHVLHFFHITIDIRNVCVFLAPLFSSFTTIVTYHLTKELKDAGAGLLAAAMIAVVPGYISRSVAGSYDNEGIAIFCMLLTYYMWIKAVKTGSICWAAKCALAYFYMVSSWGGYVFLINLIPLHVLVLMLTGRFSHRIYVAYCTVYCLGTILSMQISFVGFQPVLSSEHMAAFGVFGLCQIHAFVDYLRSKLNPQQFEVLFRSVISLVGFVLLTVGALLMLTGKISPWTGRFYSLLDPSYAKNNIPIIASVSEHQPTTWSSYYFDLQLLVFMFPVGLYYCFSNLSDARIFIIMYGVTSMYFSAVMVRLMLVLAPVMCILSGIGVSQVLSTYMKNLDISRPDKKSKKQQDSTYPIKNEVASGMILVMAFFLITYTFHSTWVTSEAYSSPSIVLSARGGDGSRIIFDDFREAYYWLRHNTPEDAKVMSWWDYGYQITAMANRTILVDNNTWNNTHISRVGQAMASTEEKAYEIMRELDVSYVLVIFGGLTGYSSDDINKFLWMVRIGGSTDTGKHIKENDYYTPTGEFRVDREGSPVLLNCLMYKMCYYRFGQVYTEAKRPPGFDRVRNAEIGNKDFELDVLEEAYTTEHWLVRIYKVKDLDNRGLSRT
